Assay [1] addresses pyruvate kinase muscle 2 (PKM2), human (human (endogenous in HMDMs)) (UniProt P14618). Description: co-IP.
In assay [2] the target is pyruvate kinase muscle 2 (PKM2), murine (mouse (endogenous in murine peritoneal macrophages)) (UniProt P52480). Description: co-IP.
Assay [3] has the same target. The assay can be described thus: proximity ligation.
The target is the same in assay [4]. Description: co-IP. The source holds these as a separate data set.

Protein sequences, listed by entry. Tags and fused reporters are not part of them. Residues count along the entry.
UniProt P14618: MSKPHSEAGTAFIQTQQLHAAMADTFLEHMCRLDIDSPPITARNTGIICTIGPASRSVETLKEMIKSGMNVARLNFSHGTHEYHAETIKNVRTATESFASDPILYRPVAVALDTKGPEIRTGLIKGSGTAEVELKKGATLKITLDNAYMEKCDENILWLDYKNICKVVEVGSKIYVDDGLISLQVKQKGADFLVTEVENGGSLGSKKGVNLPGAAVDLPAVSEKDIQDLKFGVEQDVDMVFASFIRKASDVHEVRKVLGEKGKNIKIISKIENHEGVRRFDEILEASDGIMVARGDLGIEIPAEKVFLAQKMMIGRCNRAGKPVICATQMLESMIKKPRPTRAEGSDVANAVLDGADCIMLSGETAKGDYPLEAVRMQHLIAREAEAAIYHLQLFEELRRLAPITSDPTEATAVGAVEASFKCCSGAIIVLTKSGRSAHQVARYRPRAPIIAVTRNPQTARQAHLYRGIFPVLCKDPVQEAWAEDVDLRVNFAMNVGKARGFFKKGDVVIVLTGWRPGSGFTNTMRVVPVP
UniProt P52480: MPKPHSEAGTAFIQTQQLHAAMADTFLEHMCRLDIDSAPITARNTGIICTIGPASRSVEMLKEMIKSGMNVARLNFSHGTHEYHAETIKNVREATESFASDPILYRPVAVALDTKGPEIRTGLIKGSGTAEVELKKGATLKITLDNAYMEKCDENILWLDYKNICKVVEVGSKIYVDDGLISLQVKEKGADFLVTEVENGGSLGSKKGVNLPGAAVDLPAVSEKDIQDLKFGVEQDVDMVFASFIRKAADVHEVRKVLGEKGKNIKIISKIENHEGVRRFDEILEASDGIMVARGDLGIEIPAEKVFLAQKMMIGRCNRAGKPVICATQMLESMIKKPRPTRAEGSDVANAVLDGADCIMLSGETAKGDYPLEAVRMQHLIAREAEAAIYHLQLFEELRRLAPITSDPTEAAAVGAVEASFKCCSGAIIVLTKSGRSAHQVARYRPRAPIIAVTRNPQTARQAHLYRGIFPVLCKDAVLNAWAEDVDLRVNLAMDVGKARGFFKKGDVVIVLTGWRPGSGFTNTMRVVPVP
UniProt P38646, residues 47-679: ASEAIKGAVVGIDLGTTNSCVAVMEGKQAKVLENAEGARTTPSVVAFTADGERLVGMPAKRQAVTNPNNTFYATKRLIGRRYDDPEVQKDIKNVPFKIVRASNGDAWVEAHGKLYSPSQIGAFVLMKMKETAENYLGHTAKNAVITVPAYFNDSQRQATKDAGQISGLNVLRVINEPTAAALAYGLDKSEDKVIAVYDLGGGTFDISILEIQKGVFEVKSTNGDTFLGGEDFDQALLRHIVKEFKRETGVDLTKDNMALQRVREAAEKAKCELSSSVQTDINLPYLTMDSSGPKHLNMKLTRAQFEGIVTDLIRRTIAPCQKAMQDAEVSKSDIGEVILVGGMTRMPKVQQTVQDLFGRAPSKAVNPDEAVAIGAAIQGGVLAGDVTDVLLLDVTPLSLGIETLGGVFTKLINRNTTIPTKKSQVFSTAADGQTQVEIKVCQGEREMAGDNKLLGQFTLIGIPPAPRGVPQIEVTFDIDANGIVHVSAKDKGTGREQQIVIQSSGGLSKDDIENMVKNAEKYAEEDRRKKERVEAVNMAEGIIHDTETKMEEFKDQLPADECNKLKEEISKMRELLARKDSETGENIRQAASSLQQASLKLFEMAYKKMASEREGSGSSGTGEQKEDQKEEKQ
UniProt P38647, residues 47-679: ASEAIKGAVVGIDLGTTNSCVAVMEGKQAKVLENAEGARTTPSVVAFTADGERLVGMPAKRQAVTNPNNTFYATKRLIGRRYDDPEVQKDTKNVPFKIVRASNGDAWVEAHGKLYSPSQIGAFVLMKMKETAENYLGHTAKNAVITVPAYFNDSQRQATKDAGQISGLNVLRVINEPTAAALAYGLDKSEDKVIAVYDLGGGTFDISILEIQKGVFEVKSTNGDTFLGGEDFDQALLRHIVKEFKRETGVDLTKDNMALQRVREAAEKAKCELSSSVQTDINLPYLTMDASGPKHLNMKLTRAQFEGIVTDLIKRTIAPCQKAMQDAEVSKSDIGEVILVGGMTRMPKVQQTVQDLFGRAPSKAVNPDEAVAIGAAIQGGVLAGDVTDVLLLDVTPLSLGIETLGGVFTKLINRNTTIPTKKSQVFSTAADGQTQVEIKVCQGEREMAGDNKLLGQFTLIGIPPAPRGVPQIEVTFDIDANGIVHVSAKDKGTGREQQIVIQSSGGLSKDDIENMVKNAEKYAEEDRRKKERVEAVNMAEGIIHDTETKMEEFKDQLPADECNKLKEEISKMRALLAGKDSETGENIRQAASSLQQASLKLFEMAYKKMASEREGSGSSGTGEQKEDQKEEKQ

These are yes or no findings as the source states them, for the method shown. Binding seen in cells or lysates may run through a third protein. Some binding calls cover weakened binding; strength is not graded here.

On to “GRP75, human (from UniProt P38646 47-679)”, for which the binding result in assay [1] was “binds”.
Turning to “GRP75, murine (from UniProt P38647 47-679)”, the binding result in assay [2] is “binds”.

B1: UQCRC1, a subunit of ETC Complex III, murine (protein, UniProt Q9CZ13 35-480)
chain: TATFAQALQSVPETQVSILDNGLRVASEQSSHATCTVGVWIDAGSRYETEKNNGAGYFLEHLAFKGTKNRPGNALEKEVESIGAHLNAYSTREHTAYLIKALSKDLPKVVELLADIVQNSSLEDSQIEKERDVILREMQENDASMQNVVFDYLHATAFQGTPLAQAVEGPSENVRRLSRTDLTDYLNRHYKAPRMVLAAAGGVEHQQLLDLAQKHLSSVSRVYEEDAVPGLTPCRFTGSEIRHRDDALPLAHVAIAVEGPGWANPDNVTLQVANAIIGHYDCTYGGGVHLSSPLASVAVANKLCQSFQTFNISYSDTGLLGAHFVCDAMSIDDMVFFLQGQWMRLCTSATESEVTRGKNILRNALVSHLDGTTPVCEDIGRSLLTYGRRIPLAEWESRIQEVDAQMLRDICSKYFYDQCPAVAGYGPIEQLPDYNRIRSGMFWLRF
For B1, the binding result in assay [3] and in assay [4] was “binds” in each case.

Values taken from publication doi:10.1101/2023.09.07.556574.
